# Measured values: PubChem BioAssay AID272 (DTP/NCI, 2004)
# The list is a part of this screen's results and no random one: it gathers tests that were run many times, whatever their T/C, doses with no T/C, and many T/C values between a quarter and a half above the control. Further doses and runs are listed elsewhere. T/C: endpoint of the treated group in % of that of the vehicle group. Schedule codes are those of the source, taken here to give the interval after Q, in days (D) or hours (H), and the number of doses after X. Some entries give survivors of the animals treated and no T/C: the source files T/C as zero there, which appears to mark a toxic dose or a test without result, not a measured value. Some doses without a T/C left all or most animals alive at the check, yet need not have been tolerated: the source hardly ever lists a survival T/C far under the control, and the zero likely stands for such cases as well. Survivors were counted at the toxicity check, usually on the fifth day, unless a day is given; later deaths do not show. Some doses were run more than once; the results are listed from low to high. Some molecules as drawn cover several salts, stereoisomers or complexes of the source; a dose is that of the sample tested. Some schedules carry Z or #; the key to these is not given. For survival time, the PubChem record calls one and a half times the control and up active, and a quarter to a half above the control has no call in these data; cut-offs in other NCI protocols can differ.
# Test system: Lewis lung carcinoma i.m., BDF1 mice, T/C %
# Test: NCI In Vivo Anticancer Drug Screen. Data for tumor model Lewis Lung Carcinoma (intramuscular) in B6D2F1 (BDF1) mice
# How it was run: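 Mice carrying transplantable tumours received test compound. Survival or tumour size was recorded and expressed as the treated-group value (T) divided by the vehicle-treated control-group value (C).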
# [1] = T/C endpoint: median survival time, dose: 200.0 mg/kg/injection, schedule: Q01DX011 (ip), vehicle: saline, higher T/C = longer survival
# [2] = T/C endpoint: median survival time, dose: 800.0 mg/kg/injection, schedule: Q01DX011 (ip), vehicle: saline, higher T/C = longer survival
smiles,measurement,setting,value
O=C1C(=O)c2ccccc2C(O)=C1CC=C(Cl)Cl,survivor count,"T/C endpoint: mean tumor weight (est.), dose: 100.0 mg/kg/injection, schedule: Q01DX011 (ip), vehicle: saline with Tween-80, higher T/C = larger tumour",3 of 8
same,survivor count,"T/C endpoint: mean tumor weight, dose: 15.0 mg/kg/injection, schedule: Q01DX011 (oral), vehicle: saline, higher T/C = larger tumour",5 of 8
same,survivor count,"T/C endpoint: mean tumor weight, dose: 30.0 mg/kg/injection, schedule: Q01DX011 (oral), vehicle: saline, higher T/C = larger tumour",5 of 8
same,survivor count,"T/C endpoint: mean tumor weight, dose: 40.0 mg/kg/injection, schedule: Q01DX011 (oral), vehicle: saline, higher T/C = larger tumour",4 of 8
same,survivor count,"T/C endpoint: mean tumor weight, dose: 60.0 mg/kg/injection, schedule: Q01DX011 (ip), vehicle: saline, higher T/C = larger tumour",3 of 8
same,survivor count,"T/C endpoint: mean tumor weight, dose: 80.0 mg/kg/injection, schedule: Q01DX011 (oral), vehicle: saline, higher T/C = larger tumour",1 of 8
same,survivor count,"T/C endpoint: mean tumor weight, dose: 100.0 mg/kg/injection, schedule: Q01DX011 (ip), vehicle: other, higher T/C = larger tumour",4 of 8
same,T/C,"T/C endpoint: median survival time, dose: 10.0 mg/kg/injection, schedule: Q01DX011 (ip), vehicle: saline, higher T/C = longer survival",125 % of control
same,survivor count,"T/C endpoint: median survival time, dose: 15.0 mg/kg/injection, schedule: Q01DX011 (oral), vehicle: saline, higher T/C = longer survival",5 of 8
same,survivor count,"T/C endpoint: median survival time, dose: 30.0 mg/kg/injection, schedule: Q01DX011 (oral), vehicle: saline, higher T/C = longer survival",5 of 8
same,survivor count,"T/C endpoint: median survival time, dose: 40.0 mg/kg/injection, schedule: Q01DX011 (ip), vehicle: saline, higher T/C = longer survival",8 of 8
same,survivor count,"T/C endpoint: median survival time, dose: 40.0 mg/kg/injection, schedule: Q01DX011 (oral), vehicle: saline, higher T/C = longer survival",4 of 8
same,survivor count,"T/C endpoint: median survival time, dose: 50.0 mg/kg/injection, schedule: Q01DX011 (ip), vehicle: saline with Tween-80, higher T/C = longer survival",6 of 8
same,survivor count,"T/C endpoint: median survival time, dose: 60.0 mg/kg/injection, schedule: Q01DX011 (ip), vehicle: saline, higher T/C = longer survival",3 of 8
same,survivor count,"T/C endpoint: median survival time, dose: 80.0 mg/kg/injection, schedule: Q01DX011 (ip), vehicle: saline, higher T/C = longer survival",0 of 8
same,survivor count,"T/C endpoint: median survival time, dose: 80.0 mg/kg/injection, schedule: Q01DX011 (oral), vehicle: saline, higher T/C = longer survival",1 of 8
same,survivor count,"T/C endpoint: median survival time, dose: 100.0 mg/kg/injection, schedule: Q01DX011 (ip), vehicle: saline with Tween-80, higher T/C = longer survival",3 of 8
same,survivor count,"T/C endpoint: median survival time, dose: 160.0 mg/kg/injection, schedule: Q01DX011 (oral), vehicle: saline, higher T/C = longer survival",0 of 8
same,survivor count,"T/C endpoint: median survival time, dose: 320.0 mg/kg/injection, schedule: Q01DX011 (oral), vehicle: saline, higher T/C = longer survival",0 of 8
Nc1nc2n[nH]nc2c(=O)[nH]1,survivor count,"T/C endpoint: mean tumor weight, dose: 50.0 mg/kg/injection, schedule: Q01DX011 (ip), vehicle: other, higher T/C = larger tumour",5 of 8
same,survivor count,"T/C endpoint: mean tumor weight, dose: 200.0 mg/kg/injection, schedule: Q01DX011 (ip), vehicle: other, higher T/C = larger tumour",3 of 8
COc1ccc(OC)c(/C=C/c2ccnc3ccccc23)c1,survivor count,"T/C endpoint: mean tumor weight (est.), dose: 200.0 mg/kg/injection, schedule: Q01DX011 (ip), vehicle: saline with Tween-80, higher T/C = larger tumour",5 of 8
same,survivor count,"T/C endpoint: median survival time, dose: 200.0 mg/kg/injection, schedule: Q01DX011 (ip), vehicle: saline with Tween-80, higher T/C = longer survival",5 of 8
same,T/C,"T/C endpoint: median survival time, dose: 400.0 mg/kg/injection, schedule: Q01DX011 (ip), vehicle: saline with Tween-80, higher T/C = longer survival",125 % of control
CC(=O)O[C@H]1[C@H]2O[C@]23[C@@H]2CC[C@@H]4C[C@@H](O)CC[C@]4(C)[C@H]2CC[C@]3(C)[C@H]1c1ccc(=O)oc1,survivor count,"T/C endpoint: mean tumor weight (est.), dose: 3.75 mg/kg/injection, schedule: Q01DX011 (ip), vehicle: other, higher T/C = larger tumour",1 of 8
same,survivor count,"T/C endpoint: mean tumor weight (est.), dose: 15.0 mg/kg/injection, schedule: Q01DX011 (ip), vehicle: other, higher T/C = larger tumour",4 of 8
same,survivor count,"T/C endpoint: median survival time, dose: 3.75 mg/kg/injection, schedule: Q01DX011 (ip), vehicle: other, higher T/C = longer survival",1 of 8
same,survivor count,"T/C endpoint: median survival time, dose: 15.0 mg/kg/injection, schedule: Q01DX011 (ip), vehicle: other, higher T/C = longer survival",4 of 8
same,survivor count,"T/C endpoint: median survival time, dose: 30.0 mg/kg/injection, schedule: Q01DX011 (ip), vehicle: other, higher T/C = longer survival",0 of 8
CN(N=O)C(=O)N[C@@H](C=O)[C@@H](O)[C@H](O)[C@H](O)CO,survivor count,"T/C endpoint: mean tumor weight, dose: 100.0 mg/kg/injection, schedule: Q01DX011 (ip), vehicle: saline, higher T/C = larger tumour",4 of 8
same,survivor count,"T/C endpoint: median survival time, dose: 100.0 mg/kg/injection, schedule: Q01DX011 (ip), vehicle: saline, higher T/C = longer survival",4 of 8
same,survivor count,[1],0 of 8
same,survivor count,"T/C endpoint: median survival time, dose: 400.0 mg/kg/injection, schedule: Q01DX011 (ip), vehicle: saline, higher T/C = longer survival",0 of 8
same,survivor count,[2],0 of 8
O=C(O)CCCc1ccc(N(CCCl)CCCl)cc1,survivor count,"T/C endpoint: mean tumor weight, dose: 15.0 mg/kg/injection, schedule: Q01DX011 (ip), vehicle: carboxymethylcellulose (CMC), higher T/C = larger tumour",4 of 8
same,survivor count,"T/C endpoint: median survival time, dose: 15.0 mg/kg/injection, schedule: Q01DX011 (ip), vehicle: carboxymethylcellulose (CMC), higher T/C = longer survival",4 of 8
same,survivor count,"T/C endpoint: median survival time, dose: 16.0 mg/kg/injection, schedule: Q01DX011 (ip), vehicle: saline, higher T/C = longer survival",4 of 10 and 7 of 10
same,survivor count,"T/C endpoint: median survival time, dose: 32.0 mg/kg/injection, schedule: Q01DX011 (ip), vehicle: saline, higher T/C = longer survival",0 of 10 and 3 of 10
OCC1OC(n2cnc3c(Cl)ncnc32)C(O)C1O (stereo not given),survivor count,"T/C endpoint: mean tumor weight (est.), dose: 200.0 mg/kg/injection, schedule: Q01DX011 (ip), vehicle: saline, higher T/C = larger tumour",5 of 8
same,survivor count,"T/C endpoint: mean tumor weight (est.), dose: 800.0 mg/kg/injection, schedule: Q01DX011 (ip), vehicle: saline, higher T/C = larger tumour",5 of 8
same,survivor count,"T/C endpoint: mean tumor weight, dose: 50.0 mg/kg/injection, schedule: Q01DX011 (ip), vehicle: Klucel (hydroxypropylcellulose) (HPC), higher T/C = larger tumour",5 of 8
same,survivor count,"T/C endpoint: mean tumor weight, dose: 100.0 mg/kg/injection, schedule: Q01DX011 (ip), vehicle: Klucel (hydroxypropylcellulose) (HPC), higher T/C = larger tumour",5 of 8
same,survivor count,"T/C endpoint: mean tumor weight, dose: 400.0 mg/kg/injection, schedule: Q01DX011 (ip), vehicle: Klucel (hydroxypropylcellulose) (HPC), higher T/C = larger tumour",5 of 8
same,survivor count,"T/C endpoint: mean tumor weight, dose: 800.0 mg/kg/injection, schedule: Q01DX011 (ip), vehicle: Klucel (hydroxypropylcellulose) (HPC), higher T/C = larger tumour",5 of 8
same,survivor count,"T/C endpoint: median survival time, dose: 50.0 mg/kg/injection, schedule: Q01DX011 (ip), vehicle: saline, higher T/C = longer survival",7 of 8
same,survivor count,"T/C endpoint: median survival time, dose: 50.0 mg/kg/injection, schedule: Q01DX012 (ip), vehicle: Klucel (hydroxypropylcellulose) (HPC), higher T/C = longer survival",5 of 8
same,survivor count,"T/C endpoint: median survival time, dose: 100.0 mg/kg/injection, schedule: Q01DX012 (ip), vehicle: Klucel (hydroxypropylcellulose) (HPC), higher T/C = longer survival",5 of 8
same,survivor count,[1],5 of 8
same,survivor count,"T/C endpoint: median survival time, dose: 400.0 mg/kg/injection, schedule: Q01DX012 (ip), vehicle: Klucel (hydroxypropylcellulose) (HPC), higher T/C = longer survival",5 of 8
same,survivor count,[2],5 of 8
same,survivor count,"T/C endpoint: median survival time, dose: 800.0 mg/kg/injection, schedule: Q01DX012 (ip), vehicle: Klucel (hydroxypropylcellulose) (HPC), higher T/C = longer survival",5 of 8
O=C(O)C1CSCN1 (stereo not given),T/C,"T/C endpoint: median survival time, dose: 12.5 mg/kg/injection, schedule: Q#BDX045 (ip), vehicle: sodium bicarbonate, higher T/C = longer survival",135 % of control
same,T/C,"T/C endpoint: median survival time, dose: 25.0 mg/kg/injection, schedule: Q#BDX045 (ip), vehicle: sodium bicarbonate, higher T/C = longer survival",139 % of control
same,T/C,"T/C endpoint: median survival time, dose: 50.0 mg/kg/injection, schedule: Q#BDX045 (ip), vehicle: sodium bicarbonate, higher T/C = longer survival",138 % of control
COc1cc([C@@H]2c3cc4c(cc3[C@H](O)[C@H]3COC(=O)[C@H]23)OCO4)cc(OC)c1OC,T/C,"T/C endpoint: mean tumor weight, dose: 0.13 mg/kg/injection, schedule: Q01DX011 (ip), vehicle: Klucel (hydroxypropylcellulose) (HPC), evaluated on day 12, higher T/C = larger tumour",135 % of control
same,survivor count,"T/C endpoint: mean tumor weight, dose: 1.0 mg/kg/injection, schedule: Q01DX011 (ip), vehicle: Klucel (hydroxypropylcellulose) (HPC), higher T/C = larger tumour",4 of 8
same,survivor count,"T/C endpoint: mean tumor weight, dose: 2.0 mg/kg/injection, schedule: Q01DX011 (ip), vehicle: Klucel (hydroxypropylcellulose) (HPC), higher T/C = larger tumour",2 of 8
same,survivor count,"T/C endpoint: median survival time, dose: 1.0 mg/kg/injection, schedule: Q01DX011 (ip), vehicle: Klucel (hydroxypropylcellulose) (HPC), higher T/C = longer survival",6 of 8
CC(=O)C(O)N1C(=O)C=CC1=O (stereo not given),T/C,"T/C endpoint: median survival time, dose: 0.31 mg/kg/injection, schedule: Q01DX011 (ip), vehicle: water, higher T/C = longer survival",127 % of control
same,T/C,"T/C endpoint: median survival time, dose: 0.31 mg/kg/injection, schedule: Q#A X022 (ip), vehicle: water, higher T/C = longer survival",130 % of control
same,T/C,"T/C endpoint: median survival time, dose: 0.62 mg/kg/injection, schedule: Q#A X022 (ip), vehicle: water, higher T/C = longer survival",125 % of control
same,T/C,"T/C endpoint: median survival time, dose: 1.25 mg/kg/injection, schedule: Q01DX011 (ip), vehicle: water, higher T/C = longer survival",132 % of control
same,survivor count,"T/C endpoint: median survival time, dose: 5.0 mg/kg/injection, schedule: Q01DX011 (ip), vehicle: water, higher T/C = longer survival",4 of 8
same,survivor count,"T/C endpoint: median survival time, dose: 10.0 mg/kg/injection, schedule: Q01DX011 (ip), vehicle: water, higher T/C = longer survival",0 of 8
same,survivor count,"T/C endpoint: median survival time, dose: 10.0 mg/kg/injection, schedule: Q#A X022 (ip), vehicle: water, higher T/C = longer survival",0 of 8
